Reference: PubChem BioAssay AID1259307 (Sanger Institute, 2017)
Screen: 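Identify kinases needed for SW620 growth or enhancing BYL719, cetuximab or trametinib effects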 (primary screen). System: SW620 colorectal cancer cells. Reagent: siRNA pool against human genes. Challenge: anchor drugs BYL719 at 1 µM, cetuximab at 5 µg/ml or trametinib at 10 nM, each beside a DMSO vehicle arm. Read-out: 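Cell viability in each well relative to non-targeting controls, averaged over replicates and turned into a robust z-score; synergy with BYL719 (1 µM), cetuximab (5 µg/ml), trametinib (10 nM) versus DMSO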. Reading the numbers: viability robust z-score, no drug and viability vs control, no drug: higher = more viable cells; synergy score with BYL719 and synergy score with cetuximab: higher = stronger synthetic lethality with the drug. Hit rule: 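Essential when the viability robust z-score without drug is under -3; synergy scores are ignored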. Meaning of the calls: active = essential (lethal alone); inactive = no change alone.
In all, the deposit lists 794 reagents; below is a random part of them. Over the whole deposit, 15 (1.9%) are marked active. 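Calls reflect lethality without any drug; synergy scores did not enter the calls.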 Entries without a mark were called inactive. No viability above 1 is reported: the scale is capped. Further read-outs or replicates are left out here. Reagent sequences are not shown. The record does not give: the amount of reagent, the time to read-out.

The first 4 records as a preview:
gene,PubChem SID,"viability robust z-score, no drug","viability vs control, no drug",synergy score with BYL719,synergy score with cetuximab
EPHB4 (EPH receptor B4),SID152156322,-0.108,0.922,0.0042,-0.0779
ROCK1 (Rho associated coiled-coil containing protein kinase 1),SID152156760,0.537,0.982,-0.00983,-0.0184
PAK5 (p21 (RAC1) activated kinase 5),SID56478749,-1.07,0.833,-0.0334,-0.0596
CTCF (CCCTC-binding factor),SID135623925,-0.993,0.84,0.002,0.0215

The list itself, repeating the preview:
gene,PubChem SID,"viability robust z-score, no drug","viability vs control, no drug",synergy score with BYL719,synergy score with cetuximab
EPHB4 (EPH receptor B4),SID152156322,-0.108,0.922,0.0042,-0.0779
ROCK1 (Rho associated coiled-coil containing protein kinase 1),SID152156760,0.537,0.982,-0.00983,-0.0184
PAK5 (p21 (RAC1) activated kinase 5),SID56478749,-1.07,0.833,-0.0334,-0.0596
CTCF (CCCTC-binding factor),SID135623925,-0.993,0.84,0.002,0.0215
TSKS (testis specific serine kinase substrate),SID56479267,0.736,1,-0.0919,0
GRK3 (G protein-coupled receptor kinase 3),SID135620814,-0.501,0.886,-0.136,-0.114
PIK3C2B,SID56479135,0.646,0.992,-0.00404,-0.00828
SPHK1 (sphingosine kinase 1),SID152154122,0.367,0.966,-0.0448,0.0192
ITPKB (inositol-trisphosphate 3-kinase B),SID56479111,0.518,0.98,0.00393,0.0185
"CKM (creatine kinase, M-type)",SID56479085,0.736,1,0.113,0.0282
PRKAR1A,SID135621428,-0.554,0.881,-0.0429,-0.0497
BMPR2 (bone morphogenetic protein receptor type 2),SID135620969,0.567,0.984,-0.0171,0.0282
PKLR (pyruvate kinase L/R),SID152148534,0.736,1,-0.0919,0
NUP98 (nucleoporin 98 and 96 precursor),SID152147776,-4.49 (active),0.518,-0.0748,0.0378
PRKG2 (protein kinase cGMP-dependent 2),SID56478832,0.736,1,-0.0145,0
PDGFRL (platelet derived growth factor receptor like),SID134315029,-1.63,0.782,-0.142,-0.0181
DBF4 (DBF4-CDC7 kinase regulatory subunit),SID135620786,0.736,1,-0.0663,0.0333
SRMS,SID56479047,-0.484,0.887,-0.0171,-0.0238
MAPK14 (mitogen-activated protein kinase 14),SID135620690,-0.0793,0.925,-0.00209,-0.0211
CDKN1C (cyclin dependent kinase inhibitor 1C),SID56478604,0.487,0.977,-0.0533,-0.0227
PTK2B (protein tyrosine kinase 2 beta),SID56478543,0.736,1,-0.0161,0.0759
MED12 (mediator complex subunit 12),SID152147641,0.714,0.998,0.00597,-0.00206
TPK1 (thiamin pyrophosphokinase 1),SID135621256,-2.36,0.715,-0.159,-0.104
NEK11 (NIMA related kinase 11),SID152147168,-1.1,0.831,-0.0284,0.0953
CDKL4 (cyclin dependent kinase like 4),SID135624323,0.736,1,0.000814,0
INSRR (insulin receptor related receptor),SID56479015,0.736,1,-0.0572,0.00351
MAPK15 (mitogen-activated protein kinase 15),SID152151405,-1.36,0.806,-0.203,-0.194
PRKACG (protein kinase cAMP-activated catalytic subunit gamma),SID56478826,0.736,1,-0.0919,0
TNNI3K (TNNI3 interacting kinase),SID56478945,-1.18,0.823,0.0587,-0.177
KCNH2 (potassium voltage-gated channel subfamily H member 2),SID135621164,-0.622,0.875,-0.0139,-0.0422
TSSK1B (testis specific serine kinase 1B),SID56478967,0.736,1,-0.0919,0
STK25 (serine/threonine kinase 25),SID135620899,-0.0151,0.931,-0.0897,-0.0326
PHKA2 (phosphorylase kinase regulatory subunit alpha 2),SID56479176,-2.09,0.739,-0.139,-0.202
RET (ret proto-oncogene),SID135620630,0.736,1,-0.0919,0
